From article PMC7819943, “Rice protein-binding microarrays: a tool to detect cis-acting elements near promoter regions in rice”
This is one part of the list.

Protein sequences, listed by entry. Tags and fused reporters are not part of them.
UniProt Q0JBA9, entry or part of it: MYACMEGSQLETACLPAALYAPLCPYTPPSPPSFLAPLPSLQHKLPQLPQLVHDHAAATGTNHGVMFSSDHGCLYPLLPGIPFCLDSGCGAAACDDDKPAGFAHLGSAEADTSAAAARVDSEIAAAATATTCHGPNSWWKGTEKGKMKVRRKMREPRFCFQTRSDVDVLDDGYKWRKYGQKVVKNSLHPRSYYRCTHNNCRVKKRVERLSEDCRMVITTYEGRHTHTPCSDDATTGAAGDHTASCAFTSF

Molecular target: OsWRKY34 (Oryza sativa, UniProt Q0JBA9 1-250)
Experiment: protein-binding microarray (RPBM); PBS, 2% BSA, 51.3 ng/ul salmon testes DNA, 50 uM zinc acetate, 200 nM TF, 25 C, 1 h; high values mean tight binding
Details: protein: recombinant; tags: N-terminal polyhistidine and DsRed monomer fusion (pET32a); label: CyDye5-dUTP incorporated in the synthesized complementary strand; 3' TTTTT single-stranded linker to array surface; dsDNA, one strand shown
Outline: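 Polyhistidine-tagged DsRed fusions of transcription factors, joined at the N-terminus, were expressed in E. coli BL21-CodonPlus and isolated on Ni–NTA. They were incubated at 200 nM for 1 h at 25 °C on a custom Agilent array, double-stranded and BSA-blocked, in PBS with 2% BSA, salmon testes DNA and 50 µM zinc acetate. The binding signal is per-feature fluorescence intensity (arbitrary units) read on an Axon 4000B scanner after washing.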

Sequence	binding signal
CTAATGGTTCTGATCGCCGTGCCTAACCCTAGCCCCATATCGGAGTCACCTAGTGCAG	8400 fluorescence intensity (a.u.)
ATATGCGATTTTCTTGTTGGGTTTAAACTTTTTTTAATAACGGAGTCACCTAGTGCAG	11200 fluorescence intensity (a.u.)
GGCACCGGAGAACTCCCCTGTCCTCCTGGCCGTCCGCGCGCGGAGTCACCTAGTGCAG	8600 fluorescence intensity (a.u.)
TCTCTCTCTCTCTCTCTCTCTCTCTCTGCACGCGCGCGTGCGGAGTCACCTAGTGCAG	8020 fluorescence intensity (a.u.)
TTGAAATTTTCTCACTTTTAATCATTTTTCTCCATGTTTGCGGAGTCACCTAGTGCAG	8690 fluorescence intensity (a.u.)
GAACGGACTAAAGCCCAACATGGACTCCTACATACCGATCCGGAGTCACCTAGTGCAG	8360 fluorescence intensity (a.u.)
ACGGCTCGGCATGCGGCGAAAAAAGCGGCGGCGCTCCGCCCGGAGTCACCTAGTGCAG	10200 fluorescence intensity (a.u.)
TAAGGCTGCTATATTTTGGGACGGAGGGTGTGCTCTGCTTCGGAGTCACCTAGTGCAG	8750 fluorescence intensity (a.u.)
AAAATTCTTGTGGGTGCTGTATTGTTGTTGTTGCTGCTGCCGGAGTCACCTAGTGCAG	11000 fluorescence intensity (a.u.)
TTATGGGTATGTCACCAGGGGTTTAATCTTTCATTTTCAACGGAGTCACCTAGTGCAG	12300 fluorescence intensity (a.u.)
TCTGATTTCACTATTGCGTAGCTTTCATCCGCATGATTACCGGAGTCACCTAGTGCAG	8020 fluorescence intensity (a.u.)
GATCCTCTGCTGTATTATCCCTATATTGAAAGTCACTGACCGGAGTCACCTAGTGCAG	8580 fluorescence intensity (a.u.)
TTCACCCCGCTGCTCCGACGTCCTAGCCATCGCCGCCGCCCGGAGTCACCTAGTGCAG	8600 fluorescence intensity (a.u.)
GTTGTTTGGTTGCTTGCATGAGAAAGTGTGGCACATGATCCGGAGTCACCTAGTGCAG	8660 fluorescence intensity (a.u.)
ACGTGTACGGCGCGGGGTGGAGGTGAGGGGTGGTGGGGCCCGGAGTCACCTAGTGCAG	18000 fluorescence intensity (a.u.)
ATTAAATTCCTTTCTGCCCATTTTTCGTCAAAGAAACGCACGGAGTCACCTAGTGCAG	10600 fluorescence intensity (a.u.)
TTTTGTCTGCTTCATGTAACCTATGGATTTCGCTGTCCAACGGAGTCACCTAGTGCAG	9260 fluorescence intensity (a.u.)
GGCGCCTTTTTGACTATTGACATTTGTATTCATTAGGTTTCGGAGTCACCTAGTGCAG	8160 fluorescence intensity (a.u.)
TCATCATCATCATCAGCTGACAAGTTCACTAAGCCCACAACGGAGTCACCTAGTGCAG	10700 fluorescence intensity (a.u.)
GCAGTTTGTACTTTCAAGTGATTGTCTCAGCTCTGGATGACGGAGTCACCTAGTGCAG	9110 fluorescence intensity (a.u.)
CTCGCCGCATCCACGCCGTCCCTTTTAATCCACCCGTCTCCGGAGTCACCTAGTGCAG	10500 fluorescence intensity (a.u.)

Sequence	binding signal
TTATCATGTTTGCTATGTCGACATAGATTTGGTCCTGACACGGAGTCACCTAGTGCAG	8970 fluorescence intensity (a.u.)
TTTTCTACAGCGCTGCTATAGCTACTTGTCAGCTGATGTACGGAGTCACCTAGTGCAG	8180 fluorescence intensity (a.u.)
GGATAATTTTTGTTCGCTTCCGCGCTTCTCGCTAGTTTTTCGGAGTCACCTAGTGCAG	8580 fluorescence intensity (a.u.)
CTGCTTCTAATAGTCCAGCATTAGCAAATGTCCGGCACTGCGGAGTCACCTAGTGCAG	8060 fluorescence intensity (a.u.)
GTGAGGGGAGGAAGCGGGGCTGCCTCGCGCGGCGGGAGGTCGGAGTCACCTAGTGCAG	8100 fluorescence intensity (a.u.)
CGATATCCGGCGTCTTGTCTTGGTGCATGTTAGCTTATATCGGAGTCACCTAGTGCAG	8830 fluorescence intensity (a.u.)
AATTCCATCTTTGCAGTAGTCCTTGGCTTGATAATACAGACGGAGTCACCTAGTGCAG	9050 fluorescence intensity (a.u.)
GGCTTCCTGTCCCGCGTCCGCGCCCACCACATCCGCAATTCGGAGTCACCTAGTGCAG	13300 fluorescence intensity (a.u.)
TTTCTCGAGAAAATATCCACAGTCATCGTTGTCTCCTCCGCGGAGTCACCTAGTGCAG	8990 fluorescence intensity (a.u.)
CTTCCCCGATGTGATGCCTACCGGATTCACACTTCCGTTACGGAGTCACCTAGTGCAG	8220 fluorescence intensity (a.u.)
CTCCAAACACATCCTTAGCATCCAAGTGAATCTCTTTGGACGGAGTCACCTAGTGCAG	9510 fluorescence intensity (a.u.)
GGCTGTTGTCAACCCATTTTCGAGTGATCCTGAAACAGATCGGAGTCACCTAGTGCAG	8300 fluorescence intensity (a.u.)
AAAGCATATACTCTCTCTCTATATTTTTTTTATACAGGTCCGGAGTCACCTAGTGCAG	8820 fluorescence intensity (a.u.)
AACTCACTCTCGCGTTCGCGTCGTCTCCGGCCTTTTCTTGCGGAGTCACCTAGTGCAG	8870 fluorescence intensity (a.u.)
ATTTAATTTGCTCTTTGACCCTCATCGTCTTCACTGTACACGGAGTCACCTAGTGCAG	11300 fluorescence intensity (a.u.)
TCTCTCTCTCGTGCGTCACCTCCTCGCGTGCTCAGCGCCGCGGAGTCACCTAGTGCAG	8780 fluorescence intensity (a.u.)
CTCCCTCCACACCGTCCGGCGAACTCCACGGCCACCTCCGCGGAGTCACCTAGTGCAG	9160 fluorescence intensity (a.u.)
GGGTTGGGATTTGACCAGGTTAAACCTCACGCAAACGGCACGGAGTCACCTAGTGCAG	9750 fluorescence intensity (a.u.)
GTACTAGTATTTTCACATATTGAATTTTTGTCACGCCTTTCGGAGTCACCTAGTGCAG	8540 fluorescence intensity (a.u.)
AGAATTTCTTTTTTTTGGTCCACAATGCATTAGGGGCGGTCGGAGTCACCTAGTGCAG	8040 fluorescence intensity (a.u.)
TCGGGGAGGTCGGGGTCGCTGGTTGGATCCAAGAAACGGTCGGAGTCACCTAGTGCAG	16000 fluorescence intensity (a.u.)

Sequence	binding signal
GTCGGCGAAGGAGGGGCTGGGGTTCGCGGCGGCGGCGGAGCGGAGTCACCTAGTGCAG	8290 fluorescence intensity (a.u.)
AGTCGCACATGTCCCACAAAACCACGTGAGTTTCCGTCAGCGGAGTCACCTAGTGCAG	8210 fluorescence intensity (a.u.)
ACCGAGCCCAAACCGTTGCTTCTGTCGTATTCTAGCGCATCGGAGTCACCTAGTGCAG	11200 fluorescence intensity (a.u.)
CCTGATCACTATGTCTCTGTATCAACAATTTTCCGGGTTACGGAGTCACCTAGTGCAG	9110 fluorescence intensity (a.u.)
GTCAGTCTCCTCCAAAGCATGCATCACATGTCATTTTTTACGGAGTCACCTAGTGCAG	9760 fluorescence intensity (a.u.)
AAACCCGCCCAGATCCTACTGAATTGCGTCATCCCACGATCGGAGTCACCTAGTGCAG	8150 fluorescence intensity (a.u.)
CATATGTTTAACCGTTCGTCTTATTCAAAAACTTTTGTAACGGAGTCACCTAGTGCAG	8192 fluorescence intensity (a.u.)
AGTTTACTCCAGCTTCTTAACTTCTTGATACTGACTCACACGGAGTCACCTAGTGCAG	8950 fluorescence intensity (a.u.)
CGTTTGCTAAAGTCTGCTCTGATTGTATTACGTCCTGGGGCGGAGTCACCTAGTGCAG	8540 fluorescence intensity (a.u.)
CGTTGTTTGTTTCTTACTCTATCGTTCCAATTTAGTTTTTCGGAGTCACCTAGTGCAG	15500 fluorescence intensity (a.u.)
TTAAATTTCAGATCTTTTTGAGGTAGGGAGGGTTTTACAACGGAGTCACCTAGTGCAG	14900 fluorescence intensity (a.u.)
ACGCCCTATGTATATATCCTACTAGCATTAGTGAGTTCTCCGGAGTCACCTAGTGCAG	8750 fluorescence intensity (a.u.)
CACTTTCCACGCGCGCGCTGCGAGGCCGAGGCCGAGGAGACGGAGTCACCTAGTGCAG	8340 fluorescence intensity (a.u.)
GAATTGCACCCGTTCGACAGGGACCTACTTTCGCGATTTTCGGAGTCACCTAGTGCAG	10300 fluorescence intensity (a.u.)
GAGCGATATAGACCACGTTCCATCTCTCTAGTTTATATTTCGGAGTCACCTAGTGCAG	8400 fluorescence intensity (a.u.)
GTCCCTAGTTAAGCAGTCATTGTGTCCCTTACCCACCTAACGGAGTCACCTAGTGCAG	8920 fluorescence intensity (a.u.)
TGGCACGATGGATCCAACGCGCTGTTTCGTCGTTTCCGCGCGGAGTCACCTAGTGCAG	9060 fluorescence intensity (a.u.)
CCTTTTTTTTCTATTAAGATACATATTTTACTCGTGGTTTCGGAGTCACCTAGTGCAG	10100 fluorescence intensity (a.u.)
CTCTCTCCATGGCCGCGCCCGCGCCGCCCACGCCGGCGGCCGGAGTCACCTAGTGCAG	8920 fluorescence intensity (a.u.)
ATCCATCCATGTGTGTGTGTGCTGTGTTGTGTTAAGCTTTCGGAGTCACCTAGTGCAG	11000 fluorescence intensity (a.u.)
TGGTTTATAACCTGCTATTGTACCTGCTCTTATTCTTAGTCGGAGTCACCTAGTGCAG	9680 fluorescence intensity (a.u.)

A different layout for part of the listing above:
AGTTTACTCCAGCTTCTTAACTTCTTGATACTGACTCACACGGAGTCACCTAGTGCAG
  binding signal: 8950 fluorescence intensity (a.u.)
CGTTTGCTAAAGTCTGCTCTGATTGTATTACGTCCTGGGGCGGAGTCACCTAGTGCAG
  binding signal: 8540 fluorescence intensity (a.u.)
CGTTGTTTGTTTCTTACTCTATCGTTCCAATTTAGTTTTTCGGAGTCACCTAGTGCAG
  binding signal: 15500 fluorescence intensity (a.u.)
TTAAATTTCAGATCTTTTTGAGGTAGGGAGGGTTTTACAACGGAGTCACCTAGTGCAG
  binding signal: 14900 fluorescence intensity (a.u.)

Later entries.

Sequence	binding signal
TCCACCAAACCCCACTCCACACTTCCACAGTCCACACCCACGGAGTCACCTAGTGCAG	9060 fluorescence intensity (a.u.)
GACGAATGGTCAAACACGTACTAAAAAGTCAACGGTGTCACGGAGTCACCTAGTGCAG	12200 fluorescence intensity (a.u.)
AACTTCTTTCTCTTAACTCCACCTGCAACAGTACTCCACCCGGAGTCACCTAGTGCAG	8380 fluorescence intensity (a.u.)
GTGGGTCATTAATAAATACATCATATCTCTTCTCTACCAACGGAGTCACCTAGTGCAG	8830 fluorescence intensity (a.u.)
GCTGCTTCCCCAACATATATGCATGGACAAATGGACCGATCGGAGTCACCTAGTGCAG	8170 fluorescence intensity (a.u.)
GACTTGTTTCCTCTCCCGCGCCGCCGCCGTTCCGTTTTTTCGGAGTCACCTAGTGCAG	11100 fluorescence intensity (a.u.)
GGCGAGGTGGTGTTGAGGGATTTTGGTGGTGTGTTGGAGACGGAGTCACCTAGTGCAG	12600 fluorescence intensity (a.u.)
ACTATCCCCAGGGTCATTTTCCCAGTCAAGCCACCGTAATCGGAGTCACCTAGTGCAG	9700 fluorescence intensity (a.u.)
AGCGTGCCACGATGAATATCCAAAATTTTATCCACCTTTTCGGAGTCACCTAGTGCAG	8600 fluorescence intensity (a.u.)
TTTGCTGCAGTATTTTGCTCTGCTCTGCTTCTATGCTTGACGGAGTCACCTAGTGCAG	8600 fluorescence intensity (a.u.)
CCGTCGTCTTCACCTTCGCCACCGTCACCGCCGCCGCCGCCGGAGTCACCTAGTGCAG	13400 fluorescence intensity (a.u.)
GCCAACCAAGCTCGAGCCAAGCCCGAGCTTTTTTTCCACCCGGAGTCACCTAGTGCAG	8450 fluorescence intensity (a.u.)
ACGTTTTTATTCCCAACCCTGACCGAAGTGCCACAACCATCGGAGTCACCTAGTGCAG	8720 fluorescence intensity (a.u.)
AAGTCATACCACATTATCACAGCTCGTAACATAAAACTTCCGGAGTCACCTAGTGCAG	9360 fluorescence intensity (a.u.)
TAATTCACTCTTTCTTTTTTCATGCATGTTTATGTTTACGCGGAGTCACCTAGTGCAG	8720 fluorescence intensity (a.u.)
CCAACCTGAACTTCTGCATACATGTACACACCCACAGTCACGGAGTCACCTAGTGCAG	8180 fluorescence intensity (a.u.)
AGTAAAGTCCATCACCGGTCCCTAAACTTGTACCGCTATGCGGAGTCACCTAGTGCAG	8810 fluorescence intensity (a.u.)
CCATCGTACATGTTGACCACTGGCTTGTTGACTTCTCCTCCGGAGTCACCTAGTGCAG	9880 fluorescence intensity (a.u.)
TGCCGCCTGCTTCTCTCTTCGCCCACCGGCTAAGCAACATCGGAGTCACCTAGTGCAG	9730 fluorescence intensity (a.u.)
CGCTACTAGTTATGGTCCGTTTGCAAAAATCATGGGGACTCGGAGTCACCTAGTGCAG	8350 fluorescence intensity (a.u.)
ATCCAAGGTGCTTATCAGATATTCAGATGCTGGGTTTTCTCGGAGTCACCTAGTGCAG	9230 fluorescence intensity (a.u.)
